Test results published in patent US20010029293A1.
These are yes or no findings as the source states them, for the method shown. Some binding calls cover weakened binding; strength is not graded here.

T1: soluble human ICAM-R (human) (UniProt P32942)
T1 sequence: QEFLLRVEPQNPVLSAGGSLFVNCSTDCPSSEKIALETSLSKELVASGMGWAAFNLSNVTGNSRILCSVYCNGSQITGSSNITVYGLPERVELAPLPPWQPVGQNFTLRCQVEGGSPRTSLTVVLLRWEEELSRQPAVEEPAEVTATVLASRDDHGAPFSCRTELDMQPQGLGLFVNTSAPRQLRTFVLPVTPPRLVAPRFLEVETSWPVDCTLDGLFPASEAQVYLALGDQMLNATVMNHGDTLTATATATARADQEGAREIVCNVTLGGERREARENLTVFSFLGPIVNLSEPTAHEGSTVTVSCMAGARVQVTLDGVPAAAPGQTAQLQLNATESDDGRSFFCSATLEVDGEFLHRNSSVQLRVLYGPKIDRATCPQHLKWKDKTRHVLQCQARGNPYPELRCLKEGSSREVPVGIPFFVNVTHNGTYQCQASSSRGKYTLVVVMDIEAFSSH


Each binder was assayed against T1, soluble human ICAM-R (human) (assay: ELISA on coated shICAM-R).

| binding | Binder |
| --- | --- |
| binds | ICR-8.1 HuVHV/MuVK (antibody, human IgG4, V domains shown) VH: QVQLVQSGAEVKKPGASVKVSCKASGYTFTDCIILWVRQAPGQGLEWMGKINPYFGTTTYNLKFKGRVTITVDTSTSTAYMELSSLRSEDTAVYYCARKEAYPDAMDYWGQGTLVTVSS VL: DAVMTQTPLSLPVSLGDQASISCRSSQSLVHSNGDTYLHWYLQKPGQSPQLLIYKVSNRFSGVPDRFSGSGSGTDFTLKLSRVEAEDLGVYFCSQSTHVPYTFGGGTKLEIK |
| binds | ICR-8.1 miHuVH/MuVK (antibody, human IgG4, V domains shown) VH: QVQLVQSGAEVKKPGASVKVSCKASGYTFTDCIILWVRQAPGQGLEWMGKINPYFGTTTYAQKFQGRVTITADTSTSTAYMELSSLRSEDTAVYYCARKEAYPDAMDYWGQGTLVTVSS VL: DAVMTQTPLSLPVSLGDQASISCRSSQSLVHSNGDTYLHWYLQKPGQSPQLLIYKVSNRFSGVPDRFSGSGSGTDFTLKLSRVEAEDLGVYFCSQSTHVPYTFGGGTKLEIK |
| binds | ICR-8.1 miHuVH/HuVK (antibody, human IgG4, V domains shown) VH: QVQLVQSGAEVKKPGASVKVSCKASGYTFTDCIILWVRQAPGQGLEWMGKINPYFGTTTYAQKFQGRVTITADTSTSTAYMELSSLRSEDTAVYYCARKEAYPDAMDYWGQGTLVTVSS VL: DIVMTQSPLSLPVTPGEPASISCRSSQSLVHSNGDTYLHWYLQKPGQSPQLLIYKVSNRFSGVPDRFSGSGSGTDFTLKISRVEAEDVGVYYCSQSTHVPYTFGQGTKVEIK |
